Assay results taken from article doi:10.1101/2021.09.15.460553.
These are yes or no findings as the source states them, for the method shown. Binding seen in cells or lysates may run through a third protein.

By UniProt entry, the sequences of proteins in these tests, tags left out.
UniProt Q96LD4: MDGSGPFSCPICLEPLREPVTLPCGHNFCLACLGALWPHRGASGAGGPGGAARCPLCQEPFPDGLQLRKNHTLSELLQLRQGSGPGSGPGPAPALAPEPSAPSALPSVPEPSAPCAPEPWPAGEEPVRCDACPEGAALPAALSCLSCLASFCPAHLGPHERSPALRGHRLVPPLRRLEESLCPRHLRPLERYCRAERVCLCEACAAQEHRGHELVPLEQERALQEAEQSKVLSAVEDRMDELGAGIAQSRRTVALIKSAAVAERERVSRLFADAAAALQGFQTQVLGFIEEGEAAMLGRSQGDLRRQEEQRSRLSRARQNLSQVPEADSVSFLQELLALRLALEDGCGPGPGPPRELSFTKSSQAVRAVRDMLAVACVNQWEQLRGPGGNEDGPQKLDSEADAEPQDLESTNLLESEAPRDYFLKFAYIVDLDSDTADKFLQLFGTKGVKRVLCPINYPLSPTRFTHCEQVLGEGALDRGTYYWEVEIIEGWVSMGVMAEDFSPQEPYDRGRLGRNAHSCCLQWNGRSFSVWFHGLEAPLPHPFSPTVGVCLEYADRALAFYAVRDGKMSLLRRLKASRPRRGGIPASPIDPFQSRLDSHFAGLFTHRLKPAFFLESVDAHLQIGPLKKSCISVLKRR
UniProt Q9Y6K9: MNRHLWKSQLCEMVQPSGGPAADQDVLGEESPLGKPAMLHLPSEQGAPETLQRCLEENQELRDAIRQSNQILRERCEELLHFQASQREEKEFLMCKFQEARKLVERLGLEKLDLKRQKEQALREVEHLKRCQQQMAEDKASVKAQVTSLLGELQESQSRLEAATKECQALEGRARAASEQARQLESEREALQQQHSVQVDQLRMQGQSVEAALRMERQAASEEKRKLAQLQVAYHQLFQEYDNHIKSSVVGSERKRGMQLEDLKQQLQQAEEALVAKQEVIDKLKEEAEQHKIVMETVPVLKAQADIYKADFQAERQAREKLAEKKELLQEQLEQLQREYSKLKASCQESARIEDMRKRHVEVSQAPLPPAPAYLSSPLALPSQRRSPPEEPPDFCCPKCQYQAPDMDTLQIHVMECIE
UniProt P25963: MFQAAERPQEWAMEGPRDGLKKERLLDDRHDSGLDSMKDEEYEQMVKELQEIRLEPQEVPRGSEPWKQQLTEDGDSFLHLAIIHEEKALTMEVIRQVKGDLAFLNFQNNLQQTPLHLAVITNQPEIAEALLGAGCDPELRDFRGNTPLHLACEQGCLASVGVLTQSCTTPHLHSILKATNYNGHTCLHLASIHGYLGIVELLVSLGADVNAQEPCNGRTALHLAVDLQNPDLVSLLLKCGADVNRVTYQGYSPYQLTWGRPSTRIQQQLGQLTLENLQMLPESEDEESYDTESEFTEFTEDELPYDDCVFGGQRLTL

B1: TAK1 (protein, UniProt O43318 1-606)
chain: MSTASAASSSSSSSAGEMIEAPSQVLNFEEIDYKEIEVEEVVGRGAFGVVCKAKWRAKDVAIKQIESESERKAFIVELRQLSRVNHPNIVKLYGACLNPVCLVMEYAEGGSLYNVLHGAEPLPYYTAAHAMSWCLQCSQGVAYLHSMQPKALIHRDLKPPNLLLVAGGTVLKICDFGTACDIQTHMTNNKGSAAWMAPEVFEGSNYSEKCDVFSWGIILWEVITRRKPFDEIGGPAFRIMWAVHNGTRPPLIKNLPKPIESLMTRCWSKDPSQRPSMEEIVKIMTHLMRYFPGADEPLQYPCQYSDEGQSNSATSTGSFMDIASTNTSNKSDTNMEQVPATNDTIKRLESKLLKNQAKQQSESGRLSLGASRGSSVESLPPTSEGKRMSADMSEIEARIAATTAYSKPKRGHRKTASFGNILDVPEIVISGNGQPRRRSIQDLTVTGTEPGQVSSRSSSPSVRMITTSGPTSEKPTRSHPWTPDDSTDTNGSDNSIPMAYLTLDHQLQPLAPCPNSKESMAVFEQHCKMAQEYMKVQTEIALLLQRKQELVAELDQDEKDQQNTSRLVQEHKKLLDENKSLSTYYQQCKKQLEVIRSQQQKRQGTS

Target: Flag-tagged TRIM47 (human) (UniProt Q96LD4)
Test: co-IP

Molecule | binding
IKKγ (from UniProt Q9Y6K9 1-419) | no binding
IκBα (from UniProt P25963 1-317) | no binding
B1 | no binding
